The supplement of paper PMC10849652
This is one part of the list.

Chains of the proteins cited; added tags and fusions are not shown. Lines headed by an entry give the natural chain unless they say otherwise; changes in a name come on top.
UniProt Q9NS00: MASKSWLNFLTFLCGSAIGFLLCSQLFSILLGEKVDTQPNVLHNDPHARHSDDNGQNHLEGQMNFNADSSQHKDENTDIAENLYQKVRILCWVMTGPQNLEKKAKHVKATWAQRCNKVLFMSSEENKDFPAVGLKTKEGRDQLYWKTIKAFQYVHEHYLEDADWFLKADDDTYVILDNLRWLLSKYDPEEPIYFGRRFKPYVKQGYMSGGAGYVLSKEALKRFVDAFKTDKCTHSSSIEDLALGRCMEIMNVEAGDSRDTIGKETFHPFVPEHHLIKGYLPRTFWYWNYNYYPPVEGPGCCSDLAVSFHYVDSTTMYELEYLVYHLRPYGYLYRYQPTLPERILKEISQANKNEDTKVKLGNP
UniProt P47756, whole entry, looked up: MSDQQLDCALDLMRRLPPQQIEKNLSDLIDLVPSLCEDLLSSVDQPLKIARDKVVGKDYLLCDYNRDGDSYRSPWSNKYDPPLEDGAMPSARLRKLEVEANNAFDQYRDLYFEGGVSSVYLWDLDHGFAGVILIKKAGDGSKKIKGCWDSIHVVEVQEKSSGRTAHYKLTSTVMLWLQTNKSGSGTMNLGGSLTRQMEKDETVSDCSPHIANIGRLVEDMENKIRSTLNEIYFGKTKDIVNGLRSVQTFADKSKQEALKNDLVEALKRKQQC
UniProt Q8N5I9: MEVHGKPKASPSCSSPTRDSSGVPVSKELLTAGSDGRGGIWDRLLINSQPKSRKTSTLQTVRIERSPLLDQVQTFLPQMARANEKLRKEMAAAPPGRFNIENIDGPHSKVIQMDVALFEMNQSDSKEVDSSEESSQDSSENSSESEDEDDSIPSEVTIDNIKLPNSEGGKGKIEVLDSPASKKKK
UniProt Q8N999, whole entry, looked up: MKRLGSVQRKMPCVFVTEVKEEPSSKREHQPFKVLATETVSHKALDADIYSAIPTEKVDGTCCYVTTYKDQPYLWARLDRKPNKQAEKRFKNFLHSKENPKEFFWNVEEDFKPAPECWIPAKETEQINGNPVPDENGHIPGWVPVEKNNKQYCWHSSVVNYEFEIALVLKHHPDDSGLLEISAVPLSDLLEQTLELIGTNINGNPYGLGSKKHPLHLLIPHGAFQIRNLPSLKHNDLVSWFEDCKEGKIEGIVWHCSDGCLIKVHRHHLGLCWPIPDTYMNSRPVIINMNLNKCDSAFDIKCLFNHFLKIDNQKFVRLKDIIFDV
UniProt P01024, whole entry, looked up: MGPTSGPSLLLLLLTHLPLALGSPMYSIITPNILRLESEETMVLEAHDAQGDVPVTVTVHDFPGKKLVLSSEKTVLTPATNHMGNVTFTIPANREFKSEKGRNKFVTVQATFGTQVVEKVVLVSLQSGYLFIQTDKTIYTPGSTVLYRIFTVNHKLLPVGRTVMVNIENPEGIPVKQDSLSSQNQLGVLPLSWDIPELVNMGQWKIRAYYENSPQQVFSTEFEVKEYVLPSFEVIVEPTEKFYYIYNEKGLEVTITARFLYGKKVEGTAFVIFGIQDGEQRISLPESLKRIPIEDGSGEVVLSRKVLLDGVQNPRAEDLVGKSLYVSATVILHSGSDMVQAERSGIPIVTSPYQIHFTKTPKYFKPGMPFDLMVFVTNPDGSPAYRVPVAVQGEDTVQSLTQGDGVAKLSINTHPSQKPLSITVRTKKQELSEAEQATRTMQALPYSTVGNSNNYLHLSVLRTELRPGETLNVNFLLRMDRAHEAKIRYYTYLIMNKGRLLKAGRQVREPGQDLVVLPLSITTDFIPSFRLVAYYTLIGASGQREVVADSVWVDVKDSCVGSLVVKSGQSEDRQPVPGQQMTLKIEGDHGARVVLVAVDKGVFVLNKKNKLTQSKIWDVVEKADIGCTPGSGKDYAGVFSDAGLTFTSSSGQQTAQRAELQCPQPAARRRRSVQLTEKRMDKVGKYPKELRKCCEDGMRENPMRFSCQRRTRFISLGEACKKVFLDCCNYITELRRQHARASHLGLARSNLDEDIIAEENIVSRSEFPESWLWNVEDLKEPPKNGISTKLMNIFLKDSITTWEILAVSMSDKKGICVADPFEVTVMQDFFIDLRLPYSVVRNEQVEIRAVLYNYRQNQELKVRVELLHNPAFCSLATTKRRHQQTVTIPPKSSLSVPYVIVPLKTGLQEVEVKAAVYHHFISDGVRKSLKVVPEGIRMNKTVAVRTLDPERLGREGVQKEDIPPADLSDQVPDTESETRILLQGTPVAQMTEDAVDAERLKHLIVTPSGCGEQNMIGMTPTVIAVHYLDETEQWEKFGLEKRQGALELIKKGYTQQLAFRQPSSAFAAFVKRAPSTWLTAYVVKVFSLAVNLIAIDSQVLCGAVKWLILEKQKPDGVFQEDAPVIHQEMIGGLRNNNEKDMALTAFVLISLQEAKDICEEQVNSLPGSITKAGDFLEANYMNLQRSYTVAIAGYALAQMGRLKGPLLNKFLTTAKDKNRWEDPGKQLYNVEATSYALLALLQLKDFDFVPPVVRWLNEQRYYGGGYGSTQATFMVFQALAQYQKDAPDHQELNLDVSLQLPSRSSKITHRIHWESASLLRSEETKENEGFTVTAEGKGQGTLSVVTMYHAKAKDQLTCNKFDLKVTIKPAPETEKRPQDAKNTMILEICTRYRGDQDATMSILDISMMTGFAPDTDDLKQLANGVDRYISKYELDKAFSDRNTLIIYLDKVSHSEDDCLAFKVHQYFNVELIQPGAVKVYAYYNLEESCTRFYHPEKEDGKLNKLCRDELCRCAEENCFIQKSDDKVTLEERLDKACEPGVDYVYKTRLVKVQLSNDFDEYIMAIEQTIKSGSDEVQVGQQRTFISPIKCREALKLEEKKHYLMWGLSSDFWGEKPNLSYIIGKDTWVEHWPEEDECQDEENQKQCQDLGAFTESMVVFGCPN
UniProt Q9HB71, whole entry, looked up: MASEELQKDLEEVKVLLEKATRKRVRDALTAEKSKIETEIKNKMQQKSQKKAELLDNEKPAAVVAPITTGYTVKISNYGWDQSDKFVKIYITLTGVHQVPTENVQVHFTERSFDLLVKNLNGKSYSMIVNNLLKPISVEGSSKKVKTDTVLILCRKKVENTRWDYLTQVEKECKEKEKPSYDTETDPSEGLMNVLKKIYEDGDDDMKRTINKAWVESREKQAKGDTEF
UniProt Q96K31: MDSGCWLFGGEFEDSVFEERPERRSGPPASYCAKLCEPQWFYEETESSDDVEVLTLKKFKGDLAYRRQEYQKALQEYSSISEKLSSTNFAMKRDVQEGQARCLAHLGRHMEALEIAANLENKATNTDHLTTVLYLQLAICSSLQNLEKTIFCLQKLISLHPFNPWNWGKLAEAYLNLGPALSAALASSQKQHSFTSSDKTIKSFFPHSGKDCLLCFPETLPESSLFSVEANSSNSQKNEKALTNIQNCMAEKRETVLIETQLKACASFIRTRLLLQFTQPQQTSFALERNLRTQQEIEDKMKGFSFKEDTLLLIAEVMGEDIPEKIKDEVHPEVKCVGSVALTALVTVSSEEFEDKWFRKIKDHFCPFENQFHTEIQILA
UniProt Q96EU7: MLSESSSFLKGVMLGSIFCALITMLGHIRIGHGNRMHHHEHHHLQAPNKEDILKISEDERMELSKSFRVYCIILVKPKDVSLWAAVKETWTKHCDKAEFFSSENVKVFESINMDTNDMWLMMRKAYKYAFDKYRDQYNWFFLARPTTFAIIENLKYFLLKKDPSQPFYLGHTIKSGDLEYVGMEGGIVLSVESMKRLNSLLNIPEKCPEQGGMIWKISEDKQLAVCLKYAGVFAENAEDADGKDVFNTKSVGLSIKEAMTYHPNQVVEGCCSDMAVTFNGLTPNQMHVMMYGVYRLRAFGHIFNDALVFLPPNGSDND
UniProt Q8IYL3: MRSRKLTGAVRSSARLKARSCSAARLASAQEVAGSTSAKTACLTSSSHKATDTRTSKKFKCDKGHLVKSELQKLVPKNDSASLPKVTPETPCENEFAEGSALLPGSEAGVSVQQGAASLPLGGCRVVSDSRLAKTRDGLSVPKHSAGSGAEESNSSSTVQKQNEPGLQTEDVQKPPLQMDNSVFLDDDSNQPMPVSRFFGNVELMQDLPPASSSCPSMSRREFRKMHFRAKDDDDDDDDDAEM
UniProt P07384: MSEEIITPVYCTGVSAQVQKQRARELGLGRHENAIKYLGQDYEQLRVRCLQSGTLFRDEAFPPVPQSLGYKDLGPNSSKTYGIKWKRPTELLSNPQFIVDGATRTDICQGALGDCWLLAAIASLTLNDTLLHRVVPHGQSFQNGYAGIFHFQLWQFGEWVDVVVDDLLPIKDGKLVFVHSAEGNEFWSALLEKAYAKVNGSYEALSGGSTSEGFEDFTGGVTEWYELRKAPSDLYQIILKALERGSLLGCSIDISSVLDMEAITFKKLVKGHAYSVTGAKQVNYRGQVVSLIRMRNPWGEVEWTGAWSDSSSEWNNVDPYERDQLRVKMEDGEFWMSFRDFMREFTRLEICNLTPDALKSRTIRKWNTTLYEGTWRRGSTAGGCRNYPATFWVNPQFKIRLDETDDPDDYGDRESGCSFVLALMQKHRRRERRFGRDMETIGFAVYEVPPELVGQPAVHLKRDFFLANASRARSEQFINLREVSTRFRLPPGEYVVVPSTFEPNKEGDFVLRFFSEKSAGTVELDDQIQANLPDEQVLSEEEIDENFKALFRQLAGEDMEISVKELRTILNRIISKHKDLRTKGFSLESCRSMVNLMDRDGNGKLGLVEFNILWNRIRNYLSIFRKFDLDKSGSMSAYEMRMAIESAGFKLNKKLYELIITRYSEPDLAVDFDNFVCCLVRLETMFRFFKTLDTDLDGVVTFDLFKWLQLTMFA
UniProt O14523: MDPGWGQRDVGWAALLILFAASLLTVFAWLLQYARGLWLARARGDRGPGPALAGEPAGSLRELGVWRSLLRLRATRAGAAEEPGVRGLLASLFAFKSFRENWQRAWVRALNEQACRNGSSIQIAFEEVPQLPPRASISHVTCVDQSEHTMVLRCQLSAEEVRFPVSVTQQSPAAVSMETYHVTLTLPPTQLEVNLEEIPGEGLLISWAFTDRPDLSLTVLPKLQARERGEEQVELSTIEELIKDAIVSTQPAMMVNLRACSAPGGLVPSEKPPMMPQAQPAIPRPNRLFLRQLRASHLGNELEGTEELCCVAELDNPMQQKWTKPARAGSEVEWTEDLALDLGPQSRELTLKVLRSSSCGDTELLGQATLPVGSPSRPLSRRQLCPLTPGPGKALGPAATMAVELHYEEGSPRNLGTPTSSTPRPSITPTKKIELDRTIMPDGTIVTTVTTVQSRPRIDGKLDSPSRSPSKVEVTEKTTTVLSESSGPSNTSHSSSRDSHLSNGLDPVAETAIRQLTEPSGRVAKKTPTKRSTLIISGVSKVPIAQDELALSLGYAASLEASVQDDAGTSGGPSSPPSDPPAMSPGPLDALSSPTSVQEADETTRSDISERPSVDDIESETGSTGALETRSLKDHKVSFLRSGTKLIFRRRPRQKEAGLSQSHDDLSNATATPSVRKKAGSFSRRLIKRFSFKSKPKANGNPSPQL
UniProt Q8IXQ3: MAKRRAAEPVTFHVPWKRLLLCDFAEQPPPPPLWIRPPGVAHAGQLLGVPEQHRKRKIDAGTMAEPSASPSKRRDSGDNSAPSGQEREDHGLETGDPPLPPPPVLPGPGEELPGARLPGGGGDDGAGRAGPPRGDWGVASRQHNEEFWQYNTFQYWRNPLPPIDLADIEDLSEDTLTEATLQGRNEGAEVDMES
UniProt Q01518, whole entry, looked up: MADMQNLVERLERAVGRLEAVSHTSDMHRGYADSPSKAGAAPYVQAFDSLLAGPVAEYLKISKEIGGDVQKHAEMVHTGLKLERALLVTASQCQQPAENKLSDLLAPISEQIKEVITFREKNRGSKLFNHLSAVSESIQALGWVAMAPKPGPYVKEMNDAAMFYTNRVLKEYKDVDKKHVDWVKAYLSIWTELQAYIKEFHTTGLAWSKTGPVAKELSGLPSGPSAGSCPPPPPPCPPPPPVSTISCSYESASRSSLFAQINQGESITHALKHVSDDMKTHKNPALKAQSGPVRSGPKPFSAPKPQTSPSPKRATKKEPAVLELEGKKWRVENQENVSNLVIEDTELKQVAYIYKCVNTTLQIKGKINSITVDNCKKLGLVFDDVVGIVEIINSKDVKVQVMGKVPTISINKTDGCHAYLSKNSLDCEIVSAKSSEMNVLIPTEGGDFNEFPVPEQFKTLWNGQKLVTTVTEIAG
UniProt Q9UFG5: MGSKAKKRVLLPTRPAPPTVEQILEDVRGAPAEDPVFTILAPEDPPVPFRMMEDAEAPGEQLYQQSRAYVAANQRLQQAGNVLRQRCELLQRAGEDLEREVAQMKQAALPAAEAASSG
UniProt O43852: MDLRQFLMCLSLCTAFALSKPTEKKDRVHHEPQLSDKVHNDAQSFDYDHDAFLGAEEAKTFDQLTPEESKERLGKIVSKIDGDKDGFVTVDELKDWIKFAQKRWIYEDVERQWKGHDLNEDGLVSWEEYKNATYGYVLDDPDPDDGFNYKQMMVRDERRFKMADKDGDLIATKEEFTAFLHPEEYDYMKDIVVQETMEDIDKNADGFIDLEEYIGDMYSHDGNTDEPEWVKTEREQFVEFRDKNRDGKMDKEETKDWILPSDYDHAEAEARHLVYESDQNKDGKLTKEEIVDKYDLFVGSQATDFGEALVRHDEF

Tests used:
Experiment in all cases: log2 fold change, soluble protein after heating vs DMSO (PISA); higher = thermal stabilisation; K562 cells, 10 uM, 30 min; active = over 0.2 and 3.5 SD of the protein, either way, in both replicates (recomputed)
[1] = compound: COC1=CC=C(C=C1)CN2C=CC3=C2C=C(C=C3)C(=O)NO
Summary of the method: (§1)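 For each measurement, 10 μM compound was applied for 30 min to K562 cells at 2×10^6 cells/mL. Aliquots were heated for 3 min across 48°C-58°C, pooled, and extracted in PBS with 0.5% NP-40 at 4°C; the supernatant after 21,000xg for 90 min was soluble protein. This was quantified by TMTpro 16plex LC-MS/MS with channel sums equalised, and thermal stability was reported relative to control samples from duplicates, on a log2 fold-change scale.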

filanesib = compound: CON(C)C(=O)N1N=C(c2cc(F)ccc2F)S[C@@]1(CCCN)c1ccccc1 [filanesib]
Summary of the method: as §1

zotarolimus = compound: CO[C@H]1C[C@@H]2CC[C@@H](C)[C@@](O)(O2)C(=O)C(=O)N2CCCC[C@H]2C(=O)O[C@H]([C@H](C)C[C@@H]2CC[C@H](n3cnnn3)[C@H](OC)C2)CC(=O)[C@H](C)/C=C(\C)[C@@H](O)[C@@H](OC)C(=O)[C@H](C)C[C@H](C)/C=C/C=C/C=C/1C [zotarolimus]
Summary of the method: as §1

idasanutlin = compound: COc1cc(C(=O)O)ccc1NC(=O)[C@@H]1N[C@@H](CC(C)(C)C)[C@](C#N)(c2ccc(Cl)cc2F)[C@H]1c1cccc(Cl)c1F [idasanutlin]
Summary of the method: as §1

alisertib = compound: COc1cc(Nc2ncc3c(n2)-c2ccc(Cl)cc2C(c2c(F)cccc2OC)=NC3)ccc1C(=O)O [alisertib]
Summary of the method: as §1

[2] = compound: COc1cc2nc(-c3cc(F)ccc3O)nc(N[C@@H]3CNC[C@H]3C(C)(C)O)c2cc1OC
Summary of the method: as §1

gefitinib = compound: COc1cc2ncnc(Nc3ccc(F)c(Cl)c3)c2cc1OCCCN1CCOCC1 [gefitinib]
Summary of the method: as §1

[3] = compound: COc1cccc2cc(-c3nc([C@H]4CC[C@H](C(=O)O)CC4)n4ncnc(N)c34)[nH]c12
Summary of the method: as §1

lapatinib = compound: CS(=O)(=O)CCNCc1ccc(-c2ccc3ncnc(Nc4ccc(OCc5cccc(F)c5)c(Cl)c4)c3c2)o1 [lapatinib]
Summary of the method: as §1

pictilisib = compound: CS(=O)(=O)N1CCN(Cc2cc3nc(-c4cccc5[nH]ncc45)nc(N4CCOCC4)c3s2)CC1 [pictilisib]
Summary of the method: as §1

[4] = compound: CS(=O)(=O)c1ccc(-c2cnc(N)c(C(=O)Nc3ccccc3)n2)cc1
Summary of the method: as §1

crizotinib = compound: C[C@@H](Oc1cc(-c2cnn(C3CCNCC3)c2)cnc1N)c1c(Cl)ccc(F)c1Cl [crizotinib]
Summary of the method: as §1

[5] = compound: C[C@@H]1COCCN1C2=NC(=NC(=C2)C3(CC3)S(=O)(=O)C)C4=C5C=CNC5=CC=C4
Summary of the method: as §1

[6] = compound: C[C@H](C1=CC=C(C=C1)C(=O)NC2=C3C=CNC3=NC=C2)N
Summary of the method: as §1

duvelisib = compound: C[C@H](Nc1ncnc2nc[nH]c12)c1cc2cccc(Cl)c2c(=O)n1-c1ccccc1 [duvelisib]
Summary of the method: as §1

gandotinib = compound: Cc1cc(Nc2cc(CN3CCOCC3)c3nc(C)c(Cc4ccc(Cl)cc4F)n3n2)n[nH]1 [gandotinib]
Summary of the method: as §1

tozasertib = compound: Cc1cc(Nc2cc(N3CCN(C)CC3)nc(Sc3ccc(NC(=O)C4CC4)cc3)n2)n[nH]1 [tozasertib]
Summary of the method: as §1

[7] = compound: Cc1cc(SCc2sc(-c3ccc(C(F)(F)F)cc3)nc2C)ccc1OCC(=O)O
Summary of the method: as §1

doramapimod = compound: Cc1ccc(-n2nc(C(C)(C)C)cc2NC(=O)Nc2ccc(OCCN3CCOCC3)c3ccccc23)cc1 [doramapimod]
Summary of the method: as §1

ispinesib = compound: Cc1ccc(C(=O)N(CCCN)[C@@H](c2nc3cc(Cl)ccc3c(=O)n2Cc2ccccc2)C(C)C)cc1 [ispinesib]
Summary of the method: as §1

Measured: log2 fold change

C1GALT1 (UniProt Q9NS00)
inactive: [1] 0.008 | filanesib 0.02 | zotarolimus 0.025 | idasanutlin -0.038 | alisertib -0.065 | [2] 0.093 | gefitinib -0.064 | [3] 0.053 | lapatinib 0.04 | pictilisib 0.044 | [4] 0.093 | crizotinib -0.149 | [5] 0.089 | [6] 0.005 | duvelisib 0.028 | gandotinib -0.02 | tozasertib -0.014 | [7] -0.043 | doramapimod 0.059 | ispinesib -0.063

CAPZB isoform 2 (UniProt P47756)
inactive: [1] -0.02 | filanesib -0.034 | zotarolimus -0.006 | idasanutlin -0.019 | alisertib -0.048 | [2] 0.048 | gefitinib 0.008 | [3] -0.037 | lapatinib 0.009 | pictilisib -0.018 | [4] 0.029 | crizotinib -0.007 | [5] 0.038 | [6] -0.114 | duvelisib -0.025 | gandotinib -0.01 | tozasertib -0.017 | [7] -0.059 | doramapimod -0.057 | ispinesib 0.041

C12orf45 (UniProt Q8N5I9)
inactive: [1] 0.052 | filanesib -0.012 | zotarolimus -0.012 | idasanutlin -0.02 | alisertib -0.055 | [2] 0.022 | gefitinib -0.039 | [3] 0 | lapatinib 0.004 | pictilisib 0.028 | [4] 0 | crizotinib 0.051 | [5] 0.05 | [6] -0.075 | duvelisib -0.023 | gandotinib 0.037 | tozasertib 0.003 | [7] -0.075 | doramapimod 0.011 | ispinesib 0.043

C12orf29 (UniProt Q8N999)
inactive: [1] -0.082 | filanesib 0.061 | zotarolimus -0.046 | idasanutlin 0 | alisertib -0.013 | [2] 0.099 | gefitinib -0.031 | [3] 0.039 | lapatinib -0.003 | pictilisib -0.007 | [4] -0.019 | crizotinib 0.025 | [5] -0.04 | [6] 0.014 | duvelisib 0.053 | gandotinib 0.05 | tozasertib -0.035 | [7] -0.088 | doramapimod 0.015 | ispinesib 0.024

C3 (UniProt P01024)
inactive: [1] -0.052 | filanesib 0.053 | zotarolimus -0.165 | idasanutlin 0.035 | alisertib -0.055 | [2] -0.171 | gefitinib -0.093 | [3] 0.323 | lapatinib -0.024 | pictilisib -0.09 | [4] -0.119 | crizotinib 0.123 | [5] 0.018 | [6] 0.148 | duvelisib -0.133 | gandotinib -0.121 | tozasertib -0.049 | [7] -0.122 | doramapimod 0.032 | ispinesib 0.007

CACYBP (UniProt Q9HB71)
inactive: [1] 0 | filanesib -0.044 | zotarolimus 0.008 | idasanutlin -0.044 | alisertib -0.049 | [2] 0.041 | gefitinib -0.004 | [3] 0.021 | lapatinib -0.073 | pictilisib 0.002 | [4] 0.034 | crizotinib 0.008 | [5] 0.042 | [6] -0.06 | duvelisib 0.009 | gandotinib -0.078 | tozasertib 0.002 | [7] 0.01 | doramapimod -0.035 | ispinesib 0.062

C8orf76 (UniProt Q96K31)
inactive: [1] 0.026 | filanesib 0.006 | zotarolimus -0.006 | idasanutlin 0.059 | alisertib -0.026 | [2] -0.009 | gefitinib -0.014 | [3] 0.079 | lapatinib 0.058 | pictilisib -0.022 | [4] 0.012 | crizotinib 0.026 | [5] 0.049 | [6] -0.021 | duvelisib -0.027 | gandotinib 0.059 | tozasertib -0.042 | [7] -0.074 | doramapimod 0.009 | ispinesib 0.135

CALM2 (UniProt P0DP24)
inactive: [1] 0.088 | filanesib -0.062 | zotarolimus -0.027 | idasanutlin 0.01 | alisertib -0.085 | [2] -0.033 | gefitinib -0.013 | [3] 0.042 | lapatinib 0.082 | pictilisib -0.024 | [4] 0.001 | crizotinib 0.006 | [5] 0.001 | [6] -0.086 | duvelisib 0.139 | gandotinib -0.002 | tozasertib -0.017 | [7] -0.068 | doramapimod -0.031 | ispinesib 0.048

C1GALT1C1 (UniProt Q96EU7)
inactive: [1] 0.041 | filanesib 0 | zotarolimus 0.065 | idasanutlin -0.025 | alisertib -0.007 | [2] 0.022 | gefitinib 0.032 | [3] -0.013 | lapatinib -0.007 | pictilisib 0.108 | [4] 0.016 | crizotinib -0.146 | [5] 0.028 | [6] -0.007 | duvelisib 0.04 | gandotinib -0.099 | tozasertib -0.027 | [7] -0.077 | doramapimod 0.05 | ispinesib 0.017

C1orf174 (UniProt Q8IYL3)
inactive: [1] -0.028 | filanesib 0.131 | zotarolimus 0.02 | idasanutlin 0.06 | alisertib -0.026 | [2] 0.039 | gefitinib 0.039 | [3] 0.007 | lapatinib 0.069 | pictilisib 0.043 | [4] 0 | crizotinib 0.128 | [5] -0.27 | [6] 0.037 | duvelisib 0.008 | gandotinib 0.119 | tozasertib -0.05 | [7] -0.118 | doramapimod -0.043 | ispinesib -0.08

CAPN1 (UniProt P07384)
inactive: [1] 0.002 | filanesib -0.029 | zotarolimus 0.02 | idasanutlin -0.016 | alisertib -0.09 | [2] -0.015 | gefitinib 0 | [3] 0.038 | lapatinib 0.015 | pictilisib -0.011 | [4] -0.009 | crizotinib 0.061 | [5] 0.009 | [6] -0.109 | duvelisib 0.045 | gandotinib 0.037 | tozasertib -0.023 | [7] -0.028 | doramapimod -0.023 | ispinesib 0.066

C2CD2L (UniProt O14523)
inactive: [1] -0.011 | filanesib -0.017 | zotarolimus -0.016 | idasanutlin 0.012 | alisertib -0.074 | [2] -0.05 | gefitinib 0.016 | [3] 0.055 | lapatinib 0.007 | pictilisib 0.088 | [4] 0.114 | crizotinib -0.029 | [5] 0.024 | [6] -0.009 | duvelisib 0.016 | gandotinib 0.009 | tozasertib -0.047 | [7] -0.027 | doramapimod 0.035 | ispinesib -0.084

C9orf40 (UniProt Q8IXQ3)
inactive: [1] 0.014 | filanesib 0.071 | zotarolimus -0.05 | idasanutlin 0.103 | alisertib -0.024 | [2] -0.008 | gefitinib 0.023 | [3] -0.007 | lapatinib 0.053 | pictilisib -0.085 | [4] -0.047 | crizotinib 0.076 | [5] -0.079 | [6] -0.055 | duvelisib 0.106 | gandotinib 0.031 | tozasertib -0.041 | [7] -0.023 | doramapimod 0.054 | ispinesib 0.012

CAP1 (UniProt Q01518)
inactive: [1] 0.061 | filanesib -0.094 | zotarolimus 0 | idasanutlin 0.001 | alisertib 0.003 | [2] -0.003 | gefitinib -0.014 | [3] 0.02 | lapatinib 0.007 | pictilisib 0.041 | [4] 0.063 | crizotinib 0.054 | [5] 0.126 | [6] -0.081 | duvelisib -0.008 | gandotinib -0.07 | tozasertib 0.008 | [7] 0.003 | doramapimod -0.06 | ispinesib 0.096

2 records drawn at random from the list so far, as already listed:
C2CD2L (UniProt O14523)
inactive: [1] -0.011 | filanesib -0.017 | zotarolimus -0.016 | idasanutlin 0.012 | alisertib -0.074 | [2] -0.05 | gefitinib 0.016 | [3] 0.055 | lapatinib 0.007 | pictilisib 0.088 | [4] 0.114 | crizotinib -0.029 | [5] 0.024 | [6] -0.009 | duvelisib 0.016 | gandotinib 0.009 | tozasertib -0.047 | [7] -0.027 | doramapimod 0.035 | ispinesib -0.084

CAP1 (UniProt Q01518)
inactive: [1] 0.061 | filanesib -0.094 | zotarolimus 0 | idasanutlin 0.001 | alisertib 0.003 | [2] -0.003 | gefitinib -0.014 | [3] 0.02 | lapatinib 0.007 | pictilisib 0.041 | [4] 0.063 | crizotinib 0.054 | [5] 0.126 | [6] -0.081 | duvelisib -0.008 | gandotinib -0.07 | tozasertib 0.008 | [7] 0.003 | doramapimod -0.06 | ispinesib 0.096

The list continues:

C19orf25 (UniProt Q9UFG5)
inactive: [1] 0.196 | filanesib 0.052 | zotarolimus 0.138 | idasanutlin -0.042 | alisertib -0.043 | [2] -0.071 | gefitinib -0.015 | [3] 0.081 | lapatinib -0.08 | pictilisib 0.095 | [4] 0.059 | crizotinib 0.07 | [5] 0.124 | [6] -0.083 | duvelisib 0.092 | gandotinib 0.074 | tozasertib 0.051 | [7] 0 | doramapimod -0.06 | ispinesib 0.175

CALU isoform 4 (UniProt O43852)
inactive: [1] -0.005 | filanesib -0.051 | zotarolimus -0.074 | idasanutlin -0.027 | alisertib 0.01 | [2] 0.04 | gefitinib 0.028 | [3] 0.04 | lapatinib -0.052 | pictilisib 0.03 | [4] 0.009 | crizotinib 0.111 | [5] 0.056 | [6] -0.031 | duvelisib 0.046 | gandotinib -0.055 | tozasertib -0.016 | [7] -0.031 | doramapimod -0.022 | ispinesib 0.04
